Experimental findings from PubChem BioAssay AID1347426 (Functional Genomics Laboratory (NCATS/FGL), 2020) are described below.

Among all 31,000 sequences or so, about 1,400 (4.5%) were called active.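 Rule for the calls: active = median seed-adjusted z-score above 1 or below -1; inactive = the rest.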 Some of the results follow.

A short description of the assay: Novel Modifiers of Survival Motor Neuron (SMN) Protein: Gene Identification via Genome-wide siRNA Screen.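 Note: luminescence tracks full-length SMN protein made from the SMN2 reporter.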 The settings on record: HEK293T SMN2-luciferase reporter, siRNA knockdown, 72 h; actives lie on both sides. In a few lines: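 siRNA screen, 10418 genes ×3 siRNAs; 1 pmol/well, lipid reverse transfection into HEK293T SMN2-luc reporter line. 72 h, 37 °C, 5% CO2; ONE-Glo readout. Data: neg-ctrl normalized, log10, MAD; hit = MAD >1.0 or < -1.0.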
For GAAUUAUCCCAACCGAUAUTT against DDX58, the median seed-adjusted z-score is inactive: -0.113.

For GAGAUUAUCCAGUCUCUAATT against NAT10, the median seed-adjusted z-score was inactive: 0. Regarding GAAUUCAUAUAGCAUCAAATT against UBE2V1, the median seed-adjusted z-score was inactive: 0.745.

Regarding GAGUUACUGCCGAUAAUGATT against CBR3, the median seed-adjusted z-score is inactive: 0.057. As to GGGUGUUACCUGCAAAAGATT against CCKAR, the median seed-adjusted z-score was inactive: 0.376.

As to GGAGCUCACUUACCAGGAATT against MAPK11, the median seed-adjusted z-score is inactive: 0.0663. Turning to UGAAGCCUCUGUGACCAUATT against CREB3L3, the median seed-adjusted z-score is inactive: -0.076. Turning to GCUGGUACAUUUUAUGAAATT against ZNF234, the median seed-adjusted z-score is inactive: 0.0667. As for GAGUUUCAAGUAUAACUCGTT against GLI4, the figure is inactive: 0.0798; as for UGACGUGCACAGGAAGAAATT against OXCT2, inactive: -0.449; as for CAAUUCUUGUCAUUUGAAATT against SLC25A19, inactive: -0.104. For CAGCACAAGUGCAAAAUGATT against FZD10, the median seed-adjusted z-score was inactive: -0.226. As for GUGUUGAUGUGGGUAUUUATT against RTN4, the figure is inactive: -0.0191; as for GGCUCUUUGAAUUAUCACATT against WDR64, inactive: -0.25.

On to CAGCAGAAAUAGGAGCUGATT against NPL, for which the median seed-adjusted z-score was inactive: -0.0324. As to GCUCUAACCUUACUAUACATT against ZNF253, the median seed-adjusted z-score was inactive: 0.0237. In the case of CGAUCAAUCAAAUUCGUCATT against EIF4G2, the median seed-adjusted z-score was inactive: -0.386. As for AGAACUUGAUGCUCCGAGATT against ITGA7, the median seed-adjusted z-score is inactive: 0.13. On to CGUACUGUCUGUGCAACCATT against ING1, for which the median seed-adjusted z-score was inactive: 0.121. As for GAUUCAUAGUGACCACUUATT against MUTED, the figure is inactive: 0.00377; as for CAGUCCCUCUAUCACAUAUTT against ERH, active: -1.25.

CGUGUUCUACCGGGACGAATT against FAM84B: the median seed-adjusted z-score is inactive: -0.431.

Turning to CUACUUCCUUUAUCCCGAUTT against BDH1, the median seed-adjusted z-score is inactive: -0.0253.

Take GCCUUCAACUGAUUAGACATT against PYCR1: the median seed-adjusted z-score is inactive: -0.171. GCAACAGAACUUUAAAACATT against NIT1: the median seed-adjusted z-score was inactive: -0.528. In the case of GAAUGAUAGUCAGACGUGUTT against BPNT1 it was inactive: 0.0844. On to GGGAUGUUCUUAGAAGUUUTT against BIK, for which the median seed-adjusted z-score is inactive: 0.0492. In the case of AGAUCCUGUGGAUUAGAAATT against NEU4 it was inactive: -0.152. As for CGUGAUCCUGUACCAUUAATT against EXOSC9, the figure is inactive: -0.00796; as for GAAUAGACCUGAAGACAAATT against CFLAR, inactive: -0.413; as for GCAAGUGUAUAAUAUGGUATT against STARD6, inactive: 0.0605.

As for GCUCUGGUCUUAGAGUACATT against ZFP82, the median seed-adjusted z-score is inactive: 0.57. Consider GCAGAAAAGAUAGAGUACATT against SMARCE1, for which the median seed-adjusted z-score was inactive: 0. As to GAACCUUGGUUGUUAUCCATT against MAGI3, the median seed-adjusted z-score was inactive: 0.202.

For the sequence CGAUAUCUUCACCACAUUATT against KCNJ6, the median seed-adjusted z-score is active: -1.6. For GAACUUUGAUAUGUGGAAATT against COX17, the median seed-adjusted z-score is inactive: 0.772. In the case of GCCUUACAGAUGUAGUAAATT against ZNF528, the median seed-adjusted z-score is inactive: -0.0746. For GGAAGACCUUACACGGUUATT against EIF3E, the median seed-adjusted z-score was inactive: 0.549.

Turning to CGAGAACAAAUGAUGAACATT against DLG3, the median seed-adjusted z-score is inactive: -0.317. As to GCCUCAUACCAUUCCAUAUTT against MEP1B, the median seed-adjusted z-score was active: 1.46. As to GGACUUGCCUUAACCGCUATT against MARS2, the median seed-adjusted z-score was inactive: -0.00523. As for GACAUUGUCUGUUACCUGUTT against DGKB, the figure is inactive: 0.325. Consider GGACGUAUUAUCACAAUAATT against CDH5, for which the median seed-adjusted z-score was inactive: -0.557. Take GCCUCCAUCUUAUCUAUGATT against PCDHGA4: the median seed-adjusted z-score is inactive: 0.0698. In the case of GCAACCAAGAAGACGAAGATT against RASGRF2, the median seed-adjusted z-score was inactive: -0.225. As to CGGUCUACAUGAUCAAAUATT against FZD2, the median seed-adjusted z-score is inactive: -0.0134. GAGUGGUAAUGGAAGUGAATT against PHF14: the median seed-adjusted z-score is inactive: 0.354.

GCUUGGAAAGGGUGCCUUUTT against HSFX1: the median seed-adjusted z-score was inactive: 0.0575. Consider CCUCCAUACGAGUCAAUCATT against LATS1, for which the median seed-adjusted z-score is inactive: 0. Consider ACAUCUAUAGAGACACUUUTT against SLC6A7, for which the median seed-adjusted z-score was inactive: 0.00508. In the case of GAGUCAGGACAAGAAGAUUTT against PHPT1, the median seed-adjusted z-score was active: 1.27. As for GUAUGACCUAAAAACCGAATT against MTRR, the figure is inactive: -0.381. Regarding GGACAACAAAUAUCAAGAATT against ING2, the median seed-adjusted z-score was inactive: 0.126.

Turning to GGAUGUUUUUCGAAGGAUATT against RHEB, the median seed-adjusted z-score was inactive: -0.387. Consider GGUGAAACACGGUGACGGATT against HPD, for which the median seed-adjusted z-score was inactive: -0.126. CCCGUUUACUUGAGCAAGATT against GUSB: the median seed-adjusted z-score was inactive: -0.542. As for GGACUGACUGUAAGUUUAATT against PTRH2, the median seed-adjusted z-score was inactive: 0.0467. In the case of GAAGGGCAGUGACUCGACATT against SPDEF, the median seed-adjusted z-score was inactive: -0.607. Regarding AGCAAAUGGUGUGAGCAAATT against ELOVL4, the median seed-adjusted z-score was inactive: 0.166. Turning to ACUAUGUGAUGCGCAUGAATT against NDUFB7, the median seed-adjusted z-score was inactive: -0.379. As for CGGGCAUUGCCACCAAAGATT against DUX5, the median seed-adjusted z-score is inactive: -0.295.

GGCUACCAUGGUUCAGAUATT against ARSI: the median seed-adjusted z-score is inactive: 0. As for CACUAUAUCUAUAUCGAAATT against PLD1, the median seed-adjusted z-score was inactive: 0.518. In the case of GGUGAUUCGUGUCAUCUGUTT against SLC4A11 it was inactive: -0.18. In the case of GGCCUAUUUCCAAACCGAUTT against RICS it was inactive: 0.665; in that of GGCUCAUCCUCAAUUCUUATT against ZSCAN18, inactive: 0.125. For the sequence GCUUAAAACUUUUCAAUAATT against CXCR3, the median seed-adjusted z-score is inactive: 0.693. In the case of AGUCAUGCGACAUUGGUUATT against PGLYRP4 it was inactive: 0.13; in that of CGAGGUCGUUUACAAGUCATT against SLC1A7, inactive: -0.781.
